# Source: US6630447B2, “Peptide inhibitors of LFA-1/ICAM-1 interaction” (University of New Mexico, priority 2000, dated 2003)
# Like-named read-outs stand apart in the source and are kept apart here. Not every detail of the peptide structures is certain; ends, links or a residue may be inferred. Bridge positions count the residues as written; N and C are the ends. Peptide text beside a SMILES is read from it.
# Legend:
# [1] = tested on: LFA-1/ICAM-1 mediated JY cell aggregation; format: cell-based; conditions: (1 − (Observed/Max) × 100), (SD) in parentheses
# Experimental: LFA-1 dependent cell aggregation has been previously studied using an aggregation assay it with a variety of leukocyte subclasses and cell lines (Larson et al., 1990; Wang et al., 1988; Larson et al., 1997). JY cells were obtained form American Type Tissue Culture Collection and were maintained in RPMI 1640 supplemented with 10% FBS at 37° C. in 5% CO2. Aggregation of cells was measured in a homotypic aggregation assay using ICAM-1 as a stimuli. JY cells were washed twice with serum free medium and resuspended at a concentration of 4×10^5 is cells/ml. Cells were preincubated with the desired concentration of peptide for 15 min at room temperature. […] Cells were visualized and counted by inverted phase contrast microscopy at the time indicated. Within each well of aggregates as well as the total number of free (single) cells were counted. percent aggregation was determined by the following equation: […]
# The consensus peptide (SEQ ID NO: 1) and the randomized sequence CLMIRMLRC (SEQ ID NO: 33), cyclizied in the disulfide-linked form, were synthesized by Biopeptide (San Diego, Calif.) and tested in a screening assay for the ability to inhibit aggregation of the cell line JY, which aggregates in an LFA-1/CAM-1 dependent manner. Aggregation measurements are relatively rapid and quantifiable. […]
# [2] = tested on: neutrophil binding to stimulated endothelial cells; experiment: Firm attachment of neutrophils to stimulated endothelial cells in a parallel plate flow chamber; format: cell-based, human; conditions: (SD) in parentheses
# Excerpt: An assay has been developed that provides an in vitro model of neutrophils or APL cells binding to activated endothelium. The binding of APL cells using a parallel plate flow chamber recapitulates events that occur in retinoic acid syndrome (Larson et al., 1997; Brown et al., 1999). A parallel plate flow chamber simulates the physiologic flow conditions in blood and adhesive interactions in post-capillary venules. Post-capillary venules are the physiologically relevant locations of leukemia cell-endothelial cell interaction and extravasation. […] Monolayers of endothelial cells are placed in the parallel plate flow chamber, and the leukemic cells are pumped through the chamber at physiologic flow rates. The interaction between the flowing leukemia cells and the endothelium are videotaped microscopically, and the number of rolling, firmly adhered and transmigrated leukemia cells is quantified by computer-assisted image analysis.
# For investigating neutrophil binding, neutrophils are isolated from heparin anticoagulated venous blood of healthy adult donors by centrifugation on Ficoll-Hypaque density gradients as described by Simon et al. (1992). […]
smiles,measurement,setting,value
"CC[C@H](C)[C@@H]1NC(=O)[C@H](CCCNC(=N)N)NC(=O)[C@H](CO)NC(=O)[C@H](CC(C)C)NC(=O)[C@H](CCCNC(=N)N)NC(=O)[C@H](CC(C)C)NC(=O)[C@@H](N)CSSC[C@@H](C(=O)O)NC(=O)[C@H](CCSC)NC1=O [SEQ ID NO: 56, CLRLSRIMC, reference compound] (H-CLRLSRIMC-OH; disulfide 1-9 (inferred))",Percent Inhibition,"[1]; Table 3, JY cell aggregation",4(18) Percent
same,Percent Inhibition,"[1]; Table 4, JY cell aggregation",−3.6(7) Percent
same,Percent Inhibition of firm attachment of neutrophils,[2]; (1 − (Observed/Maximum)) × 100,25(19) Percent
same,"Firmly attached neutrophils, Cells/mm^2",[2]; physiologic flow,617(152) Cells/mm^2
